Our source for the binding values is paper PMC12320230, “BAY11-7082 Targets RNF25 to Reverse TRIP4 Ubiquitination-dependent NF-κB Activation and Apoptosis Resistance in Renal Cell Carcinoma” (International Journal of Biological Sciences, 2025).

Sequences of proteins named here, by UniProt entry; tags and fusion partners are left off. A change or cut given only in a name is not applied to a line headed by its entry. Residues count along the entry.
UniProt Q04206: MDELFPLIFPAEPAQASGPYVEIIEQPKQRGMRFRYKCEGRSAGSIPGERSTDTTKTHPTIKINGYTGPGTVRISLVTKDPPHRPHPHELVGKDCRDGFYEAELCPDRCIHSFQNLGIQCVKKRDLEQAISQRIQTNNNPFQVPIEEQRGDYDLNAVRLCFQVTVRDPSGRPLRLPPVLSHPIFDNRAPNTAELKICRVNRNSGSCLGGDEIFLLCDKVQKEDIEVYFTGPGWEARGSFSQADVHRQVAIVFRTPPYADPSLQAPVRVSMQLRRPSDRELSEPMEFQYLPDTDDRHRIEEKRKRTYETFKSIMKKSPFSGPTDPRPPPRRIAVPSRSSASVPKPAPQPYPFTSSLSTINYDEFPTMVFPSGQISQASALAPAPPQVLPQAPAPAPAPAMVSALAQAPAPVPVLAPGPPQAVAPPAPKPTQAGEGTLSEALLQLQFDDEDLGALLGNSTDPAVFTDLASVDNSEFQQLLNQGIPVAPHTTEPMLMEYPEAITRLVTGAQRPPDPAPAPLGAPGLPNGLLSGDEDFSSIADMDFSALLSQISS
UniProt P19838, residues 1-433: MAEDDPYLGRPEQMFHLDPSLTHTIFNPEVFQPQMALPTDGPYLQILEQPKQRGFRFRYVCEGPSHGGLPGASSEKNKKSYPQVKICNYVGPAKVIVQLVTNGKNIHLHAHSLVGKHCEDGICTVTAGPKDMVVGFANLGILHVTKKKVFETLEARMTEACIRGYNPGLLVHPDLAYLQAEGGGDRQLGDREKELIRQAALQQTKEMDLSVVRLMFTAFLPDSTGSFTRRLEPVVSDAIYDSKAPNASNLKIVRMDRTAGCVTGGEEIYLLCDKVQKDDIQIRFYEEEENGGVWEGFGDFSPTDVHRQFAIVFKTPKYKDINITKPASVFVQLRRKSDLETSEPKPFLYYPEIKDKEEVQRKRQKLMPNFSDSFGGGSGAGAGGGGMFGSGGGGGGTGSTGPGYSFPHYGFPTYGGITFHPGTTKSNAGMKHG

For experiment [1], the target named is T1, Flag-TRIP4 (UniProt Q15650).
T1 sequence: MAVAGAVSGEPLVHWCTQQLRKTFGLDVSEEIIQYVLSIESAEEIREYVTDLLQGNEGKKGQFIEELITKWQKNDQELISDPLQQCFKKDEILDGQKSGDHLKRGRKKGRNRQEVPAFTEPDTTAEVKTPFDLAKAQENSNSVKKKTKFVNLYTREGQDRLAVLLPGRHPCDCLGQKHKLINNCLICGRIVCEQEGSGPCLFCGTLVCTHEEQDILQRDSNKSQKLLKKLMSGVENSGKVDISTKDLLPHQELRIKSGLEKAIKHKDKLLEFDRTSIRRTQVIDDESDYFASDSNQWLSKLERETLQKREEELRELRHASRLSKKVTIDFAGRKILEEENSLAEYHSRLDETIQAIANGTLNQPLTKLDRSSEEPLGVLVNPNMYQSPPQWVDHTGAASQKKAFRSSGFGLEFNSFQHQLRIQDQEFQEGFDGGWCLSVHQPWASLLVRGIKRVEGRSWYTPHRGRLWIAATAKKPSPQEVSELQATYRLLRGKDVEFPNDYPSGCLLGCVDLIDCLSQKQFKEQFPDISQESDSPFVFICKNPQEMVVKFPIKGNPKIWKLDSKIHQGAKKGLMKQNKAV
The experiment in a line: co-IP; ectopically expressed tagged proteins, 293T cells transfected 48 h; HA-/Flag-conjugated agarose beads; IP buffer 50 mM Tris-HCl pH 7.4, 150 mM NaCl, 0.1% NP-40; also with RNF25 co-expression, RNF25 knock-down or BAY11-7082.

The target of another experiment is T2, Flag-TRIP4 K135R (UniProt Q15650).
T2 sequence: T1 sequence with K135R
Described as above.

In experiment [2] the target is T1, Flag-TRIP4. The experiment in a line: co-IP; anti-Flag-TRIP4 immunoprecipitates from 293T cells, Western blot for NF-κB and IKK complex proteins. Background: In western blotting, separated proteins are transferred to a membrane and probed.
The target in the next experiment is T3, GST-TRIP4 (UniProt Q15650).
T3 sequence: T1 sequence
The experiment in a line: pull-down; GST-TRIP4 recombinant protein (GST-EV as control) as bait; proteins of SW839 cells pulled down, Western blot; only the target purified.

Experiment [3] deals with T4, RNF25 (human (endogenous in SW839)) (UniProt Q96BH1).
T4 sequence: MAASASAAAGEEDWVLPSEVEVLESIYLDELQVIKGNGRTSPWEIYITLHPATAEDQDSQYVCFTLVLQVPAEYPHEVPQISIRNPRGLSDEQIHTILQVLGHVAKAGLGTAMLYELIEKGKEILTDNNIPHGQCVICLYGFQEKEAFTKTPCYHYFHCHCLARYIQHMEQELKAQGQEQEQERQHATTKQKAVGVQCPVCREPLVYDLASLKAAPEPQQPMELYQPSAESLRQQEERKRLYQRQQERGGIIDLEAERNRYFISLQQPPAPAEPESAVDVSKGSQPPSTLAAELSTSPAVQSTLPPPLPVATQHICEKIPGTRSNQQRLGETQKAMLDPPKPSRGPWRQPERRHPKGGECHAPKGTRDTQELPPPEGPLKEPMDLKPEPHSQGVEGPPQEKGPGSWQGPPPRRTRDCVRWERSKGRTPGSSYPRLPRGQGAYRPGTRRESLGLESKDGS
The experiment in a line: co-IP; endogenous proteins in SW839 lysate; anti-RNF25 or anti-p65 antibody on protein A/G beads; IP buffer 50 mM Tris-HCl pH 7.4, 150 mM NaCl, 0.1% NP-40; also parental against ABT-199-resistant SW839 cells.

Experiment [4] concerns the target p65 (human (endogenous in SW839)) (UniProt Q04206). The description is as above.

Residue numbers refer to the chain shown, from its start. No constants are given. Whether binding was seen depends on the method and setting. Binding seen in cells or lysates may run through a third protein. Some binding calls cover weakened binding; strength is not graded here. For some of these results: Where a sequence is shown, tags or fusion partners need not be part of it.

With “HA-tagged p65 (from UniProt Q04206 1-551)”, the binding result with Flag-TRIP4 [1] and with Flag-TRIP4 K135R was “binds” in each case. Take p50 (from UniProt P19838 1-433): the binding entry with Flag-TRIP4 [2] was “binds”. Take p65 (from UniProt Q04206 1-551): the binding entry with Flag-TRIP4 [2] and with GST-TRIP4 was “binds” in each case.

B1: TRIP4 (protein, UniProt Q15650 1-581)
chain: T1 sequence
For B1, the binding entry in experiment [3] and in experiment [4] was “binds” in each case.

B2: RNF25 (protein, UniProt Q96BH1 1-459)
chain: T4 sequence
For B2, the binding result (with GST-TRIP4; in experiment [4]) was “binds” each time.

B3: Myc-RNF25 (protein, UniProt Q96BH1 1-459)
chain: T4 sequence
In the case of B3, in the experiment with Flag-TRIP4 [1], the binding result is given as “binds”.
